From patent publication US20250079000A1, “METHODS AND MARKERS FOR DIAGNOSIS OF PARKINSON'S DISEASE” (Berg LLC, priority 2021, published 2025)

Assay: Metabolic stability assessment of biomarkers in healthy control subjects
Set-up: species or system human
Conditions: for Change of metabolite over five consecutive days: Monday through Friday, 7 AM, fasting; for Change of metabolite over the course of a day: five time points (7 AM to 7 PM), without fasting

Structure (SMILES)	Change of metabolite over five consecutive days	Change of metabolite over five consecutive days (listed as N-acetylputerscine)	Change of metabolite over the course of a day	Change of metabolite over the course of a day (listed as N-acetylputerscine)	Change of metabolite over five consecutive days (listed as methylsuccinate)	Change of metabolite over the course of a day (listed as methylsuccinate)
CC(=O)NCCCCN [NAP, N-acetyl putrescine]	do not change	did not change	do not change	did not change		
CC(CC(=O)O)C(=O)O (stereo not drawn) [MSA, Methylsuccinic acid]					did not change; also recorded: do not change	did not change; also recorded: do not change

“Also recorded” adds a separate entry of the source.
